Test system: DNA aptamer or structured DNA GGGACGACAGGGATTCGCGGATTCGGAGAAAAGGGCTCGTACGTCGTCCC
Settings: 10 mM Tris-HCl, pH 7.4

Work on `CN1CC[C@]23c4c5ccc(O)c4O[C@H]2[C@@H](O)C=C[C@H]3[C@H]1C5` yielded a Kd of 22.2 µM.

Source: the AptaBench aptamer set (doi:10.1093/nar/gkaf219)
